Results are given in words; binding and its absence hold for the method and conditions named. Where a sequence is shown, tags or fusion partners need not be part of it.
Biological target: T1, SCD1, released from the linker-cleaved SCD1-cyt b5 fusions (mouse) (UniProt P13516)
T1 sequence: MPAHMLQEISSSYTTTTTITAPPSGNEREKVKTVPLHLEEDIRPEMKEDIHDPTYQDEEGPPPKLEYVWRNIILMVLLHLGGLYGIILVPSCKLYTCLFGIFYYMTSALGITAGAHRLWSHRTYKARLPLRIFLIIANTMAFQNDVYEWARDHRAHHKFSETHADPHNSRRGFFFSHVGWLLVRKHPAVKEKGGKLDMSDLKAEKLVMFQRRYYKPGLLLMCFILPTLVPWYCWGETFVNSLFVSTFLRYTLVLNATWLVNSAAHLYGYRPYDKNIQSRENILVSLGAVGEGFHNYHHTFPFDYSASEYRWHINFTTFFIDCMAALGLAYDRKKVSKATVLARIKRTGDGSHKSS
Test: SEC; binary fusion protein purified, linker cleaved by TEV protease, Superdex 200 10/300 GL in 20 mM HEPES pH 7.5, 150 mM NaCl, 1 mM DDM; elution compared with the tethered fusion; both purified

soluble domain of cyt b5, released from the linker-cleaved fusion with SCD1 (mouse) (domain or fragment)
binding: no binding

Reference: paper PMC9468158, “Transmembrane helices mediate the formation of a stable ternary complex of b5R, cyt b5, and SCD1” (Communications Biology, 2022)
